Measurements as given in doi:10.1101/2020.07.24.220640.

By UniProt entry, the sequences of proteins in these tests, tags left out.
UniProt P13395: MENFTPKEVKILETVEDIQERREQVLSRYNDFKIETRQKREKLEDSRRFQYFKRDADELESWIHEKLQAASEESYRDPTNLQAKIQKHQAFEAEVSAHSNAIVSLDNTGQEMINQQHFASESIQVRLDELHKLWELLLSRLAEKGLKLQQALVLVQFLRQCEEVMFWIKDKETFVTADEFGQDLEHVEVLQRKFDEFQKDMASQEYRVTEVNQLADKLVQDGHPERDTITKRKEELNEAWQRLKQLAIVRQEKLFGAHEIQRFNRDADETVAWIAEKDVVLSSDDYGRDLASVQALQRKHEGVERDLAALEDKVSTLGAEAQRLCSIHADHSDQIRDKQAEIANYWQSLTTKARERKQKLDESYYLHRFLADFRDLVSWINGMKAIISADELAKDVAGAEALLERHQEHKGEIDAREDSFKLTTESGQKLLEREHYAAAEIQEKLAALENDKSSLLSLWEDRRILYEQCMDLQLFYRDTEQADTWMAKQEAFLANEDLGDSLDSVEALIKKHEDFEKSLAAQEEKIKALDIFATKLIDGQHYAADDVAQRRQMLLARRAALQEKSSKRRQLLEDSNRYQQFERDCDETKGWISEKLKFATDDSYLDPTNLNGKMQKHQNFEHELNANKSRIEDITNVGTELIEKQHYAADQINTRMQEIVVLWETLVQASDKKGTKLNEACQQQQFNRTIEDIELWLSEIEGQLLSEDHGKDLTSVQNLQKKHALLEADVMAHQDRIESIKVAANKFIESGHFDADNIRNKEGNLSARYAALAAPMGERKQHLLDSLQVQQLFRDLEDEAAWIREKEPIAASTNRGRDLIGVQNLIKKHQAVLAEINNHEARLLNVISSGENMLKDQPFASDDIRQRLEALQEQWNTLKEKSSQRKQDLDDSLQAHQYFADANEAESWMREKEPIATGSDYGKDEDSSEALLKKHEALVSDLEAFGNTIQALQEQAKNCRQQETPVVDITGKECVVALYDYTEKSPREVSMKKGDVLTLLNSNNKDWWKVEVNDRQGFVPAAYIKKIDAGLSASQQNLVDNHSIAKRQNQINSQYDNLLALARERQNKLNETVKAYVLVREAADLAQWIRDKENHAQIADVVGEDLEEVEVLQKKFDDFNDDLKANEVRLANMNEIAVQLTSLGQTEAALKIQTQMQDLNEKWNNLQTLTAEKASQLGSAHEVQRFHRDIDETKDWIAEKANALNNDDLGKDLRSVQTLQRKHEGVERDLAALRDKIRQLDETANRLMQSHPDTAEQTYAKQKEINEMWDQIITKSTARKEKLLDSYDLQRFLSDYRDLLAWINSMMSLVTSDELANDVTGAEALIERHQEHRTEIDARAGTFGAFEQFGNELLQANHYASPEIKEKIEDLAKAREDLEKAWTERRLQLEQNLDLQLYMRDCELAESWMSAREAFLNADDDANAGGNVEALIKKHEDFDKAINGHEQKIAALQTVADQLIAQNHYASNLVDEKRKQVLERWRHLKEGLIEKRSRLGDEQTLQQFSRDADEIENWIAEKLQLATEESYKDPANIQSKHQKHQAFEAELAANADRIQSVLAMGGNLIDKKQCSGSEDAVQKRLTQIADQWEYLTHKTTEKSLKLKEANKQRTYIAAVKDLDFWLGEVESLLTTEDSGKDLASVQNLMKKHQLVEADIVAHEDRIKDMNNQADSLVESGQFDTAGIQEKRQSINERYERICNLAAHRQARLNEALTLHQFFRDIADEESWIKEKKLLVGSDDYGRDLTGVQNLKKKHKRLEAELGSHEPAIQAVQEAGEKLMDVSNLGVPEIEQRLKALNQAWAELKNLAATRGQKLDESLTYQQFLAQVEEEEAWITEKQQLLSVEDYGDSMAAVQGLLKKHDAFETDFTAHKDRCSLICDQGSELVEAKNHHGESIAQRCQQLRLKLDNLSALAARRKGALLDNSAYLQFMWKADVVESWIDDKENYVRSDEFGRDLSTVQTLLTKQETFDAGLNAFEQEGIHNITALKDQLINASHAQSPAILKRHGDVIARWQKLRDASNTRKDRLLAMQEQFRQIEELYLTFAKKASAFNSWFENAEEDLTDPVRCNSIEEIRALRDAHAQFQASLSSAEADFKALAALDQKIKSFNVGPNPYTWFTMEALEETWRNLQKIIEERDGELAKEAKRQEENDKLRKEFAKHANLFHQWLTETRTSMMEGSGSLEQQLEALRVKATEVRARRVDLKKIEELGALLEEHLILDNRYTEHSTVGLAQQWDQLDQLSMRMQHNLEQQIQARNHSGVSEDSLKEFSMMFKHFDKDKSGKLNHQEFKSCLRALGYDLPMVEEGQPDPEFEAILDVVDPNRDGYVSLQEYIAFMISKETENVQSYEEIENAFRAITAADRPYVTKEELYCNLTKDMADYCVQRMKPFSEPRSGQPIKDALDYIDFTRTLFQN

Target: α-Spectrin (Drosophila melanogaster (endogenous in testis)) (UniProt P13395)
Experiment: affinity purification with mass spectrometry

B1: Hsp27 (protein, UniProt P02518 1-213)
chain: MSIIPLLHLARELDHDYRTDWGHLLEDDFGFGVHAHDLFHPRRLLLPNTLGLGRRRYSPYERSHGHHNQMSRRASGGPNALLPAVGKDGFQVCMDVSQFKPNELTVKVVDNTVVVEGKHEEREDGHGMIQRHFVRKYTLPKGFDPNEVVSTVSSDGVLTLKAPPPPSKEQAKSERIVQIQQTGPAHLSVKAPAPEAGDGKAENGSGEKMETSK
binding: binds

These are yes or no findings as the source states them, for the method shown. Binding seen in cells or lysates may run through a third protein. Here binding means that the protein was enriched with, or labelled near, the bait; the list need not be complete.
